Results are given in words; binding and its absence hold for the method and conditions named. In cells and extracts the contact can be indirect. Some binding calls cover weakened binding; strength is not graded here. Where a sequence is shown, tags or fusion partners need not be part of it. Blank lines part the entries; values can stand above or below the binder they belong to.
Columns and labels:
[1] = biological target: HA-tagged TNFR2 (TNF receptor 2, full length) (human) (UniProt P20333); experiment: co-IP; HEK293T cells harvested ~24 h after transfection, lysed in cell lysis buffer for Western and IP (Beyotime P0013); lysates precleared with protein A/G-PLUS agarose beads; IP with anti-HA tag or anti-FLAG tag antibody, immunoblot
[2] = biological target: HA-tagged TNFR1 (TNF receptor 1, full length) (human) (UniProt P19438); experiment: as above
[3] = biological target: TNFR1-LgBit (LgBit Nano luciferase fused to the carboxy terminus of TNFR1) (human) (UniProt P19438); experiment: split reporter; NanoBit; cells co-transfected with SmBit-RGS5 and TNFR1-LgBit or TNFR2-LgBit, 384-well plate, Opti-MEM with 4% FBS; incubated with compounds (feshurin, butein) or DMSO for 6 h before the luciferase substrate
[4] = biological target: TNFR2-LgBit (LgBit Nano luciferase fused to the carboxy terminus of TNFR2) (human) (UniProt P20333); experiment: as above
[5] = biological target: HaloTag-TNFR1 (human) (UniProt P19438); experiment: FRET or BRET; NanoBRET PPI Starter System (Promega); HEK293T cells co-transfected with RGS5-NanoLuc and HaloTag-TNFR1/TNFR2; 100 nM HaloTag NanoBRET 618 Ligand; BRET ratios normalised to RGS5-NanoLuc with the empty HaloTag vector (pHTC)
[6] = biological target: HaloTag-TNFR2 (human) (UniProt P20333); experiment: as above

By UniProt entry, the sequences of proteins in these tests, tags left out. Residues count along the entry.
UniProt P20333, residues 23-461: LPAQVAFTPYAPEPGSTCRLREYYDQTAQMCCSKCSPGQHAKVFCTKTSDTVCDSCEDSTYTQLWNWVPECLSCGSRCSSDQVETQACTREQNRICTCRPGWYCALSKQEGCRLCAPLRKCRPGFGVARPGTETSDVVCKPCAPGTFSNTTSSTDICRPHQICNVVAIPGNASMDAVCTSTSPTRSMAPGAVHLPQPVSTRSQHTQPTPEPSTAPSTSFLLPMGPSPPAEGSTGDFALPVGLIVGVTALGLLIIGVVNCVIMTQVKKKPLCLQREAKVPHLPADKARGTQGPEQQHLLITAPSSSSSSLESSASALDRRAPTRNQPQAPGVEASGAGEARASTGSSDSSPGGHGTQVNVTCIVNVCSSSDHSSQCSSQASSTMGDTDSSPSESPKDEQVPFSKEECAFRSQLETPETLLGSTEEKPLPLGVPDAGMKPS
UniProt P19438, residues 30-455: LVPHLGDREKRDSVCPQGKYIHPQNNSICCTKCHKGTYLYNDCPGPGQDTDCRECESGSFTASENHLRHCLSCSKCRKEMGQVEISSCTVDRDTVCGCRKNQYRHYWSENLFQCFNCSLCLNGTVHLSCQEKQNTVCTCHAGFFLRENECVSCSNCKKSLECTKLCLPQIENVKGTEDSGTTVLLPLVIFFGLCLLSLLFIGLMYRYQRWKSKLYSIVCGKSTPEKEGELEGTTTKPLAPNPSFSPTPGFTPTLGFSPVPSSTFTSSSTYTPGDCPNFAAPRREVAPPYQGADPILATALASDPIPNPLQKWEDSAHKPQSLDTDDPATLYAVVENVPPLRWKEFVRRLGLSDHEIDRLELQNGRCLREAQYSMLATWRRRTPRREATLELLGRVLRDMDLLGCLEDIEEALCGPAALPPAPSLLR

- binding [1]: binds
- binding [2]: binds
B1: RGS5-3xFLAG (regulator of G-protein signaling 5, full length, human isoform 1) (protein, UniProt O15539 1-181)
chain: MCKGLAALPHSCLERAKEIKIKLGILLQKPDSVGDLVIPYNEKPEKPAKTQKTSLDEALQWRDSLDKLLQNNYGLASFKSFLKSEFSEENLEFWIACEDYKKIKSPAKMAEKAKQIYEEFIQTEAPKEVNIDHFTKDITMKNLVEPSLSSFDMAQKRIHALMEKDSLPRFVRSEFYQELIK

- binding [3]: binds
- binding [4]: binds
B2: SmBit-RGS5 (SmBit Nano luciferase fused to the amino terminus of RGS5) (protein, UniProt O15539 1-181)
chain: B1 chain

- binding [5]: binds
- binding [6]: binds
B3: RGS5-NanoLuc (protein, UniProt O15539 1-181)
chain: B1 chain

- binding [1]: no binding
- binding [2]: no binding
B4: RGS5 aa 109-181 (C-RGS5) (domain or fragment, UniProt O15539 109-181)
chain: MAEKAKQIYEEFIQTEAPKEVNIDHFTKDITMKNLVEPSLSSFDMAQKRIHALMEKDSLPRFVRSEFYQELIK

- binding [2]: binds
Binder: SLDKLLQNNYGLASFKSFLKSEFSEENLEFWIACEDYKKIKSPAK (domain or fragment, UniProt O15539 64-108) [RGS5 aa 64-108 (RGS domain fragment)]

— article PMC10481574
